Assay results: PubChem BioAssay AID540256 (National Center for Advancing Translational Sciences (NCATS), 2011)
The whole screen tested about 300,000 compounds, of which about 3,700 (1.2%) were called active. Inconclusive means that the source gave no clear call. Such entries were picked first, then a sample of the others. The call rests on the fitted dose curve; tested in HEK293 cells. A potency beside an inconclusive call is a rough fit, not a confirmed value.

Experiment: qHTS for Inhibitors of binding or entry into cells for Lassa Virus; further: nearly all actives have a fitted effect of over 50% in size
Details: Lassa virus pseudotype entry inhibition, cell reporter; activity change, negative = inhibition: at 37.9 µM (top of the series) unless noted
On the % scale 0 is the no-effect control and ±100 the full control effect; potency means the concentration at half of the fitted maximal effect.

Question: For O=C1CCC(=O)N1c1nc2nc(-c3ccccc3)cc(-c3ccccc3)n2n1, which “activity change, negative = inhibition” value is on record?
Answer: Its value is inactive: -18.2%.

Question: Which “activity change, negative = inhibition” value does the source give for CCNC(=O)C1CCCN(c2nn3cc(-c4ccc(C)cc4)nc3s2)C1 (centres undefined) here?
Answer: The value was inactive: 18.8% [at 46.1 µM].

Question: With Cc1c(-n2cc(C(=O)O)c(=O)c3cc(F)c(N4CCCC(O)C4)c(F)c32)c(=O)n(-c2ccccc2)n1C (centres undefined) as the compound, how does the “activity change, negative = inhibition” value read?
Answer: Its value is inactive: 3.94%.

Question: With Cc1ccccc1NC(=O)CCCNC(=O)c1ccc(Cl)cc1 as the compound, how does the “activity change, negative = inhibition” value read?
Answer: Its value is inactive: 0.547% [at 46.1 µM].

Question: For CC1CCN(C(=O)COc2ccc(S(=O)(=O)N3CCOCC3)cc2)CC1, which “activity change, negative = inhibition” value is on record?
Answer: Its value is inactive: 6.4%.

Question: Which “activity change, negative = inhibition” value does the source give for O=C(Cn1c(=O)n(-c2ccc(F)c(Cl)c2)c(=O)c2sc3ccccc3c21)NC1CCCCC1 here?
Answer: The value was inactive: -1.15% [at 46.1 µM].

Question: Which “activity change, negative = inhibition” value does the source give for CN(CC(=O)Nc1c(Cl)cccc1Cl)C(=O)C1CSC2(C)CCC(=O)N12 (centres undefined) here?
Answer: Its value is inactive: 3.32%.

Question: With Cc1nc2sc(C)c(C)c2c(=O)o1 as the compound, how does the “activity change, negative = inhibition” value read?
Answer: Its value is inactive: 8.75%.

Question: With CC[C@H](C)[C@@H](C(=O)OC)N1Cc2ccccc2Oc2cc(Br)ccc2S1(=O)=O as the compound, how does the Potency read?
Answer: The Potency was inconclusive: 0.0025 µM [activator, full curve, poor fit].

Question: For CCN(CC)S(=O)(=O)c1ccc2c(c1)N(CC(=O)NCCCN1CCN(c3cc(C)ccc3C)CC1)C(=O)CO2, which Potency is on record?
Answer: Its Potency is inconclusive: 17.8 µM [inhibitor, single point].

Question: For CCn1c(CSc2nc3ccccc3s2)nnc1SCC(=O)c1ccc2c(c1)OCCO2, which Potency is on record?
Answer: The Potency was inconclusive: 0.651 µM [activator, full curve, poor fit].

Question: Which Potency does the source give for OC(COCc1ccco1)CN1CCN(C(c2ccccc2)c2ccccc2)CC1 (centres undefined) here?
Answer: The Potency was inconclusive: 14.1 µM [inhibitor, partial curve, poor fit].

Question: With Cc1ccc(OCCCCn2nnc3sc4c(c3c2=O)CCC(C)C4)cc1 (centres undefined) as the compound, how does the Potency read?
Answer: The Potency was inconclusive: 35.5 µM [activator, single point].

Question: Which Potency does the source give for CCn1nnc(-c2ccccc2NS(=O)(=O)c2ccc(C(=O)OC)cc2)n1 here?
Answer: The Potency was inconclusive: 1.64 µM [activator, partial curve, poor fit].

Question: With Cc1cc(C(=O)CN2C(=O)c3cccc(N)c3C2=O)c(C)n1Cc1cccs1 as the compound, how does the Potency read?
Answer: The Potency was inconclusive: 8.91 µM [inhibitor, partial curve, poor fit].

Question: For Cc1ccc(NS(=O)(=O)c2c(C)nc3sc(C)c(C)n3c2=O)cc1F, which Potency is on record?
Answer: Its Potency is inconclusive: 11.2 µM [activator, partial curve].

Question: With CC(C)(C)C(=O)N1CCN(c2ccc([N+](=O)[O-])c(NCC3CCCO3)c2)CC1 (centres undefined) as the compound, how does the Potency read?
Answer: The Potency was inconclusive: 14.6 µM [inhibitor, partial curve].

Question: With Cc1ccc(C)c(N2CCN(C(c3ccccc3)c3nnc(-c4ccccc4)o3)CC2)c1 (centres undefined) as the compound, how does the Potency read?
Answer: Its Potency is inconclusive: 2.82 µM [inhibitor, partial curve, poor fit].

Question: For COc1cc(NC(=O)c2cccc(COCC(F)(F)C(F)F)c2)cc(OC)c1OC, which Potency is on record?
Answer: Its Potency is inconclusive: 2.24 µM [inhibitor, partial curve, poor fit].

Question: Which Potency does the source give for Cc1ccccc1Cn1c(C)nc2ccccc21 here?
Answer: Its Potency is inconclusive: 3.55 µM [inhibitor, partial curve, poor fit].

Question: For COc1ccc(-n2cc(-c3ccccc3)c3c(N4CCOCC4)ncnc32)cc1, which Potency is on record?
Answer: Its Potency is inconclusive: 5.62 µM [inhibitor, partial curve].

Question: For CCN1CCc2c(sc(-n3cccc3)c2C(CCC(C)C)NC(=O)NCCC(=O)OC)C1 (centres undefined), which Potency is on record?
Answer: Its Potency is inconclusive: 6.31 µM [activator, full curve, poor fit].

Question: For CCOc1ccc(NS(=O)(=O)c2cnc(Cl)c(Cl)c2)cc1, which Potency is on record?
Answer: The Potency was inconclusive: 4.61 µM [inhibitor, full curve, poor fit].

Question: For O=C(Cn1cnc2ccccc2c1=O)NCc1ccc2c(c1)OCO2, which “activity change, negative = inhibition” value is on record?
Answer: Its value is inactive: 1.64%.

Question: For CCOc1ccc(-n2c(C)c(C(=O)O)c3cc(OC)ccc32)cc1, which Potency is on record?
Answer: Its Potency is inconclusive: 1.41 µM [inhibitor, full curve, poor fit].

Question: For COc1cc(C(=O)NCc2nnc(SCC(=O)N3CCOCC3)o2)cc(OC)c1OC, which “activity change, negative = inhibition” value is on record?
Answer: The value was inactive: 3.31%.

Question: Which Potency does the source give for CCCNC(=O)c1cc(-c2ccc3c(c2)OCO3)on1 here?
Answer: Its Potency is inconclusive: 10 µM [inhibitor, partial curve, poor fit].

Question: For CCOC(=O)c1cnc2ccc(OCC)cc2c1NCCc1ccc(OC)c(OC)c1, which Potency is on record?
Answer: Its Potency is inconclusive: 6.31 µM [inhibitor, single point].

Question: With CC1CCN(CCCNC(=O)Cn2ncc3c([nH]c4ccccc43)c2=O)CC1 as the compound, how does the Potency read?
Answer: Its Potency is inconclusive: 2.82 µM [activator, full curve].

Question: With O=S(=O)(Nc1ccc(N2CCCCC2)cc1)c1cccs1 as the compound, how does the “activity change, negative = inhibition” value read?
Answer: The value was inactive: -2.66%.

Question: For O=C(COc1ccccc1)Nc1nc2ccccc2[nH]1, which Potency is on record?
Answer: Its Potency is inconclusive: 2.59 µM [activator, full curve, poor fit].

Question: Which “activity change, negative = inhibition” value does the source give for COc1ccc(S(=O)(=O)N(Cc2ccccc2)c2ccccc2C(=O)O)cc1 here?
Answer: The value was inactive: 12.8%.

Question: With N#Cc1cccc(NC(=O)COC(=O)c2ccccc2Sc2ccccc2C#N)c1 as the compound, how does the Potency read?
Answer: The Potency was inconclusive: 20 µM [inhibitor, single point].

Question: For COc1ccc(Cl)cc1C(=O)NCC(c1ccco1)N(C)C (centres undefined), which “activity change, negative = inhibition” value is on record?
Answer: Its value is inactive: 7.73%.

Question: For COc1ccccc1OCc1nc2ccccc2s1, which Potency is on record?
Answer: Its Potency is active: 10 µM.

Question: With CN(Cc1ccc(-n2cccn2)cc1)C(=O)c1cnn2c1NC(c1ccco1)CC2C(F)(F)F (centres undefined) as the compound, how does the Potency read?
Answer: Its Potency is inconclusive: 35.5 µM [inhibitor, single point].

Question: With Cc1cccc(C)c1NC(=O)NC1(C(=O)NCC2CCCO2)CCCCC1 (centres undefined) as the compound, how does the “activity change, negative = inhibition” value read?
Answer: Its value is inactive: -7.73% [at 46.1 µM].

Question: Which Potency does the source give for CCOC(=O)C1Nc2ccc(C(=O)O)cc2C2C=CCC12 (centres undefined) here?
Answer: Its Potency is inconclusive: 15.8 µM [activator, single point].

Question: For COc1ccc(C(=O)N2CCN(c3nc4c(OC)cccc4s3)CC2)cc1OC, which Potency is on record?
Answer: The Potency was inconclusive: 31.6 µM [inhibitor, partial curve, poor fit].

Question: For CCc1ccc2oc(-c3ccc(NC(C)=O)cc3)nc2c1, which Potency is on record?
Answer: The Potency was inconclusive: 15.8 µM [inhibitor, single point].

Question: For CCOc1cc(/C=N/N=C2/NC(=O)C(CC(=O)O)S2)ccc1OCc1ccccc1Cl (centres undefined), which Potency is on record?
Answer: The Potency was inconclusive: 22.4 µM [inhibitor, partial curve, poor fit].

Question: With COc1cccc(CNC(=O)Cn2cccc2C(=O)c2ccccc2)c1 as the compound, how does the “activity change, negative = inhibition” value read?
Answer: Its value is inactive: 12.2% [at 46.1 µM].

Question: Which “activity change, negative = inhibition” value does the source give for COc1cc(C(=O)Nc2cccc(-c3nc4ccccc4o3)c2C)cc(OC)c1OC here?
Answer: Its value is inactive: 19.5%.

Question: For COc1cc(C(=O)NCc2nc(-c3ccc(Cl)cc3)no2)cc(OC)c1OC, which “activity change, negative = inhibition” value is on record?
Answer: Its value is inactive: 19.5% [at 46.1 µM].

Question: Which “activity change, negative = inhibition” value does the source give for O=c1c2c(nc3cc(-c4ccc(F)cc4)[nH]n13)CCC2 here?
Answer: The value was inactive: 7.58%.

Question: With Nc1nc(CSc2n[nH]c(-c3ccccc3)n2)nc(Nc2ccccc2)n1 as the compound, how does the Potency read?
Answer: Its Potency is inconclusive: 15.8 µM [inhibitor, single point].

Question: For COc1ccc(CCNC(=O)Cc2ccc(NC(=O)N3CCSc4ncccc43)cc2)cc1OC, which “activity change, negative = inhibition” value is on record?
Answer: Its value is inactive: 4.37% [at 46.1 µM].

Question: For COc1cccc(-c2nc(CS(=O)(=O)CC(=O)Nc3ccc(C)c(Cl)c3)c(C)o2)c1, which “activity change, negative = inhibition” value is on record?
Answer: The value was inactive: 1.68% [at 46.1 µM].

Question: For COc1cccc(-c2nc(CS(=O)(=O)CC(=O)NCCc3cc(OC)ccc3OC)c(C)o2)c1, which Potency is on record?
Answer: Its Potency is inconclusive: 35.5 µM [inhibitor, single point].

Question: Which Potency does the source give for O=C(CCN1Cc2ccccc2C1)c1ccc2c(c1)OCCO2 here?
Answer: Its Potency is inconclusive: 18.3 µM [inhibitor, partial curve, poor fit].

Question: For CCCC1(C)NC(=O)c2ccccc2O1 (centres undefined), which “activity change, negative = inhibition” value is on record?
Answer: The value was inactive: 3.81%.

Question: With O=C(CSc1nnc(-c2cccs2)o1)c1cccs1 as the compound, how does the “activity change, negative = inhibition” value read?
Answer: The value was inactive: 13.8%.

Question: With Cc1ccc(O[C@@H]2[C@H](O)CO[C@H]2C=CC#Cc2ccc(C(C)(C)C)cc2)cc1 as the compound, how does the Potency read?
Answer: The Potency was inconclusive: 2.11 µM [inhibitor, partial curve, poor fit].

Question: For CCc1ccc(C(=O)c2cn(CC(=O)Nc3ccc(F)cc3)c3ccc(F)cc3c2=O)cc1, which Potency is on record?
Answer: Its Potency is inconclusive: 11.2 µM [inhibitor, single point].

Question: For CCOc1ccc(C2CC(=O)Nc3c2c(=O)[nH]c2ncnn32)cc1 (centres undefined), which Potency is on record?
Answer: Its Potency is inconclusive: 6.31 µM [inhibitor, single point].

Question: Which Potency does the source give for CCn1c(=O)c(C(=O)NC(C)C)c(O)c2ccccc21 here?
Answer: The Potency was inconclusive: 29.1 µM [inhibitor, single point].

Question: Which Potency does the source give for O=C(Nc1ccc2c(c1)OCCO2)c1cc2sccc2n1Cc1ccccc1 here?
Answer: The Potency was inconclusive: 25.1 µM [inhibitor, single point].

Question: For CC1(C)CC(N=Cc2c(O)n(Cc3ccc4c(c3)OCO4)c(=O)c3ccccc23)CC(C)(C)N1, which Potency is on record?
Answer: The Potency was inconclusive: 10 µM [inhibitor, partial curve, poor fit].

Question: With Clc1ccc2[nH]c3c(NCCCN4CCOCC4)ncnc3c2c1 as the compound, how does the Potency read?
Answer: Its Potency is inconclusive: 8.2 µM [activator, partial curve, poor fit].

Question: Which Potency does the source give for CCOc1ccc(-c2n[nH]c(C(=O)NN)c2C)cc1 here?
Answer: The Potency was inconclusive: 29.1 µM [inhibitor, single point].

Question: With Cc1cc(C)n(-c2nc3ccccc3nc2N2CCN(C(=O)c3ccc(F)cc3)CC2)n1 as the compound, how does the Potency read?
Answer: The Potency was inconclusive: 16.4 µM [inhibitor, partial curve, poor fit].

Question: Which “activity change, negative = inhibition” value does the source give for CCN(CC)C(=O)COc1ccc(Br)cc1Cl here?
Answer: Its value is inactive: -3.75%.

Question: Which Potency does the source give for COc1cccc(OC)c1C(=O)Nc1ccc2c3c(cccc13)CC2 here?
Answer: Its Potency is inconclusive: 35.5 µM [inhibitor, single point].

Question: Which “activity change, negative = inhibition” value does the source give for CCC(C(=O)Nc1ccccc1Cl)n1nc(C)c2c(C)n(-c3ccccc3)nc2c1=O (centres undefined) here?
Answer: The value was inactive: 1.7% [at 46.1 µM].

Question: Which “activity change, negative = inhibition” value does the source give for COc1ccccc1C(=O)C1CCCN(C(=O)Nc2ccccc2F)C1 (centres undefined) here?
Answer: The value was inactive: -8.84% [at 46.1 µM].

Question: With Cc1ccc(/C=C/C(=O)Nc2nccs2)o1 as the compound, how does the Potency read?
Answer: The Potency was inconclusive: 0.92 µM [activator, full curve].

Question: For CCn1c(SCC(=O)n2c(C)c(C)c3ccccc32)nnc1-c1ccco1, which “activity change, negative = inhibition” value is on record?
Answer: The value was inactive: 0.171%.

Question: With CC(=O)c1c(N2CCCCC2)nc(=S)n(Cc2ccccc2)c1C as the compound, how does the Potency read?
Answer: Its Potency is inconclusive: 3.66 µM [activator, partial curve, poor fit].

Question: Which Potency does the source give for Cc1nc2ccc(-c3nc4ccc(N)cc4[nH]3)cc2[nH]1 here?
Answer: Its Potency is inconclusive: 22.4 µM [inhibitor, single point].
